One compound from patent US11147884B2, “Inhibitors of NHE-mediated antiport” (Ardelyx, Inc., priority 2017, dated 2021) can be followed below.

Protein sequences, listed by entry. Tags and fused reporters are not part of them. Residues count along the entry.
UniProt P48764, 26-834 limits assumed: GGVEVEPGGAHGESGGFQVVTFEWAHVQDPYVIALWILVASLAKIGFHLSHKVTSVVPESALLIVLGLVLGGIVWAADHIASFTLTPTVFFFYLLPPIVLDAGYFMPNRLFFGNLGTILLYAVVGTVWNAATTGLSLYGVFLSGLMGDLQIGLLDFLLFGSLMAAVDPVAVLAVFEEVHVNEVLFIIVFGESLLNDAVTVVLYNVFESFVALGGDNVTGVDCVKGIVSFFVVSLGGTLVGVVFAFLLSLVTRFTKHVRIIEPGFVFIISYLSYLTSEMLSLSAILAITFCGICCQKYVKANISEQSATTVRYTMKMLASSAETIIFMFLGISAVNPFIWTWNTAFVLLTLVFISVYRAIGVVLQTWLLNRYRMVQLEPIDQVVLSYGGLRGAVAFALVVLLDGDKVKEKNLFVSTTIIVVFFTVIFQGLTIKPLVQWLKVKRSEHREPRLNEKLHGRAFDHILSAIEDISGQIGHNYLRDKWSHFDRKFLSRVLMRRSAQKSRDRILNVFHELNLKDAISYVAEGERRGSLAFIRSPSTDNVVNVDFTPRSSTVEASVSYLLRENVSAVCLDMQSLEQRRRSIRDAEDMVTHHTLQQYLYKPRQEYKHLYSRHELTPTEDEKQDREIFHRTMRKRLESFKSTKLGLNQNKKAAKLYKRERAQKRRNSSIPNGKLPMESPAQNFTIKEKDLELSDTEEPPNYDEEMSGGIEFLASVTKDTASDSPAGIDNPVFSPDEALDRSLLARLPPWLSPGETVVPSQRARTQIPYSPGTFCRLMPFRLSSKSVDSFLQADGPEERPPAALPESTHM
UniProt Q99653, 2-195 partner limits assumed: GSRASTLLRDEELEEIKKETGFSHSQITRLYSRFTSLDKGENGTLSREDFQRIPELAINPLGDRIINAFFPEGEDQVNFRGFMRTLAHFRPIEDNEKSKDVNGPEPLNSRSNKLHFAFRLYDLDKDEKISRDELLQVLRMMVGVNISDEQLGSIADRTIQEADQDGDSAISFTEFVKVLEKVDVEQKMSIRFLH

For experiment [1], the system named is Sprague Dawley rats. Description: Inhibition of intestinal sodium absorption in rats (urinary sodium excretion, fecal form). Conditions: rat; for FFS (1-5): fecal form score, group median (1 normal pellet to 5 liquid fecal streams), oral, 13 hours; for Urinary Na (% of Vehicle, out/in): oral gavage, 13-hours post-dose.
For experiment [2], the target named is T1, human NHE3 (Homo sapiens, UniProt P48764). Description: Cell-based assay of NHE-3 activity (persistent inhibition after washout), human. The following applies: human Persistence assay; after 60 min incubation and washout.
Experiment [3] concerns the target T1, human NHE3. Briefly: Cell-based assay of NHE-3 activity (pre-incubation inhibition), human. The following applies: human Preincuba assay; PS120 fibroblasts expressing human NHE3 and NHERF2.

Structures were worked out from names or drawings and are uncertain.

In the case of `CN1Cc2c(Cl)cc(Cl)cc2C(c2cccc(S(=O)(=O)N[C@H]3CCN(CCOCCNC(=O)NCCCCNC(=O)NCCOCCN4CC[C@H](NS(=O)(=O)c5cccc(C6CN(C)Cc7c(Cl)cc(Cl)cc76)c5)C4)C3)c2)C1` (stereo partly shown), the “FFS (1-5)” value in experiment [1] (0.01 mg/kg) is on record as 3; in experiment [1] (0.03 mg/kg), 2; in experiment [1] (0.1 mg/kg), 3. Further, the “Urinary Na (% of Vehicle, out/in)” value in experiment [1] (dose 0.01 mg/kg) is “A (>70%)”; in experiment [1] (dose 0.03 mg/kg), “A (>70%)”; in experiment [1] (dose 0.1 mg/kg), “C (<40%)”. In addition, the “% inhibition” value in experiment [2] and in experiment [3] was “C (>70%)” throughout. Also, the pIC50 entry in experiment [2] and in experiment [3] was “C (NHE3 pIC50 >7)” each time.
